From PMC12589423 come the findings set out here.

Chains of the proteins cited; added tags and fusions are not shown.
UniProt O95573: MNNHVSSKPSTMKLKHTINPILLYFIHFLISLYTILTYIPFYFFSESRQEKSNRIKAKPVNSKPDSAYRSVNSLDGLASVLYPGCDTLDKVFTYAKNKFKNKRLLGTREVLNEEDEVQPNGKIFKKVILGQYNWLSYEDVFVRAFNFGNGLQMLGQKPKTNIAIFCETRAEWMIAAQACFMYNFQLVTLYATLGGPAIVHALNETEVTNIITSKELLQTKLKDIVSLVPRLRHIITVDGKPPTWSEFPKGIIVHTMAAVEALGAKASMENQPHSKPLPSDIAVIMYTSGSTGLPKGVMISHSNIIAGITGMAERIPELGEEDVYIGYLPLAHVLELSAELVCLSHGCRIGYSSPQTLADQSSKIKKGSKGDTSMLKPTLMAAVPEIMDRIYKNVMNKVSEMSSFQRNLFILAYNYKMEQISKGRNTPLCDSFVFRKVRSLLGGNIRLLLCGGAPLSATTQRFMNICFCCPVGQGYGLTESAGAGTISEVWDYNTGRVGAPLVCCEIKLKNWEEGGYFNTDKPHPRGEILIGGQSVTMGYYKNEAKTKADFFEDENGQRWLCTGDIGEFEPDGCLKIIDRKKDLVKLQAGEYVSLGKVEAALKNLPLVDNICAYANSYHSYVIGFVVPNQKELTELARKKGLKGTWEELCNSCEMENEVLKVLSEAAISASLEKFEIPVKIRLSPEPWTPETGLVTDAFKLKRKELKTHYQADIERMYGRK

The target in the experiment is T1, TMEM166 (bait of the immunoprecipitation-mass spectrometry) (UniProt Q9H8M9).
T1 sequence: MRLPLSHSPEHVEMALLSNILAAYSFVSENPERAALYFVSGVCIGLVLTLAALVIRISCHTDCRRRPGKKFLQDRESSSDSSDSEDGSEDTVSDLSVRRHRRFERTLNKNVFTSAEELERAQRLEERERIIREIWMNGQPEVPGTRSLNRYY
The experiment can be described thus: affinity purification with mass spectrometry; immunoprecipitation of TMEM166 followed by mass spectrometry; cells and conditions not told.

Results are given in words; binding and its absence hold for the method and conditions named. Binding seen in cells or lysates may run through a third protein. These calls come from enrichment with a bait or labelling near it, and not all partners need be listed.

As to “ACSL3 (hit of the immunoprecipitation-mass spectrometry) (from UniProt O95573 1-720)”, the binding entry is listed as “binds”.
